Data from article PMC5431654.
Results are given in words; binding and its absence hold for the method and conditions named. In cells and extracts the contact can be indirect. Some results given as binding are weak or reduced against the parent protein; the word gives no strength.

Protein sequences, listed by entry. Tags and fused reporters are not part of them.
UniProt P06493: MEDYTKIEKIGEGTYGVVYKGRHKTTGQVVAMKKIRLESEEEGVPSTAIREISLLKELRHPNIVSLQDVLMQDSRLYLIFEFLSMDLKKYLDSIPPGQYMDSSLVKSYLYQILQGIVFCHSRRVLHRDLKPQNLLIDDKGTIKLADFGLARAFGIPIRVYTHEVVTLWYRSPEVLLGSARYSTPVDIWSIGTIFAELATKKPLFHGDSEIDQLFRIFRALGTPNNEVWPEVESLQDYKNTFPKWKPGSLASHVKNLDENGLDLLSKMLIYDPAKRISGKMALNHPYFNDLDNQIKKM
UniProt P52732: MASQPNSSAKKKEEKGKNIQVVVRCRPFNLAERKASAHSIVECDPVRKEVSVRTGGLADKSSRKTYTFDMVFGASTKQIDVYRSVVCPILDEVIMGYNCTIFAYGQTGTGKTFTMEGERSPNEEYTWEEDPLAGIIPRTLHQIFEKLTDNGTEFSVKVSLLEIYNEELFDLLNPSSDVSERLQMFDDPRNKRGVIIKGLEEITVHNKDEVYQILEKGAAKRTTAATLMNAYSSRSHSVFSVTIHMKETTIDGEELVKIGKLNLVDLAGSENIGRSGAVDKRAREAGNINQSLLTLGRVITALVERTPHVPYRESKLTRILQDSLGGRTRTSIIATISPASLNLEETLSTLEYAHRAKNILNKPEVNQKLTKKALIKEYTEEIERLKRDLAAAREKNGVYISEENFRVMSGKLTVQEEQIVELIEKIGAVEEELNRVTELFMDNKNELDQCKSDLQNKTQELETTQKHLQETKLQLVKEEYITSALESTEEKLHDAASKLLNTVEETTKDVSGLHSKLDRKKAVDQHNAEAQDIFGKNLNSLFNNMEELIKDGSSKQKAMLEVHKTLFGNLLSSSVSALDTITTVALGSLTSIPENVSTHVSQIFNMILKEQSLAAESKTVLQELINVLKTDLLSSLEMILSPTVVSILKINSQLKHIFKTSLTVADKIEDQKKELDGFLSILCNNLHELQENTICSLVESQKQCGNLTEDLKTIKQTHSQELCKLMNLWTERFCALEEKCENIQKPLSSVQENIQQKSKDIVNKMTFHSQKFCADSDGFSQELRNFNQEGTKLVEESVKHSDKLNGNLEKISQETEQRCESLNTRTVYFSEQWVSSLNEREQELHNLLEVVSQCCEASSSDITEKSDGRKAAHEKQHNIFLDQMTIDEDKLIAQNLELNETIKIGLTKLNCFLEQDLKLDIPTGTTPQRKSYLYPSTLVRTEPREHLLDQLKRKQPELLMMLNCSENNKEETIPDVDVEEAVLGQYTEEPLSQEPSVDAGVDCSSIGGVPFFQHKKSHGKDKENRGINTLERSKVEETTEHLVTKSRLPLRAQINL

Assays:
[1] = target: endogenous CDK1 (human (endogenous in HeLa)) (UniProt P06493); assay: co-IP; endogenous proteins; HeLa, BT549 (also MB231, MB435) cells treated with 100 nM Nocodazole for 5 hours, or HeLa cells released from a double thymidine block; NP-40 lysis buffer, antibody 4 °C 16 hours, Protein A/G beads, Western blot
[2] = target: T1, endogenous PP2A/B55α (human (endogenous in HEK293 and HeLa)) (UniProt P63151); assay: as above
T1 sequence: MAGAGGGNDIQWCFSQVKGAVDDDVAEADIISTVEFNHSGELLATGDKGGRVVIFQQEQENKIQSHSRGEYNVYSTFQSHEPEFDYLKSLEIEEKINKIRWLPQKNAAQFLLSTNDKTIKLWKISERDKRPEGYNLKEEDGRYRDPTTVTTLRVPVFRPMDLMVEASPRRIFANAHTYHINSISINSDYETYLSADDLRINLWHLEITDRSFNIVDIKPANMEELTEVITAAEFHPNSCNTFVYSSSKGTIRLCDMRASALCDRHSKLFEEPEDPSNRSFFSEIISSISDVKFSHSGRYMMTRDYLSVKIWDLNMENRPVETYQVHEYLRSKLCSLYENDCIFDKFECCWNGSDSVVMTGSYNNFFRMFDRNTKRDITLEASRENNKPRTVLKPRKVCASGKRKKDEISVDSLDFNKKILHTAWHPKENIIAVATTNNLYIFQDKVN

binding [1]: binds
binding [2]: binds
Substance: endogenous EG5 (KIF11) (from UniProt P52732 1-1056)
